{
  "source": "PubChem BioAssay AID504648",
  "about": "(National Center for Advancing Translational Sciences (NCATS), 2011)",
  "note": "About 610 (0.16%) of roughly 390,000 compounds were called active. Inconclusive results, whose numbers are uncertain, are shown with a selection of clear calls. Calls come from the whole dose curve; as a rule, active = well fitted inhibition curve with a large enough effect; inconclusive = small, poorly fitted or top-dose-only effect, or effect the other way, or another doubt; inactive = no such curve, though single readings can be large or run the other way. Where the call is inconclusive, the potency comes from a doubtful curve fit. % is set by controls: 0 for no effect and ±100 for the full control effect; potency is the fitted concentration of half-maximal effect.",
  "data": [
    {"assay": "Nrf2 qHTS screen for inhibitors: counterscreen for cytotoxicity", "details": "A549 ARE-Fluc cells, CellTiter-Fluor viability, 18-24 h; activity change, negative = cytotoxicity: at 46 µM (top of the series)", "in_short": "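A549 ARE_Fluc cells in 5% FBS OPTI-MEM were exposed to compounds in concentration-response for 18-24 h at 37 deg C. Viability was read by CellTiter-Fluor fluorescence (Ex 405/Em 525) after 30 min, before the luciferase read.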", "values": [
      {"smiles": "CC(C)OC(=O)c1c(NC(=O)C2c3ccccc3Oc3ccccc32)sc2c1CCCC2", "activity change, negative = cytotoxicity": "inactive: -3.84%"},
      {"smiles": "Cc1ccc2cc(C#N)c(NCCNC(=O)C3CCC3)nc2c1C", "activity change, negative = cytotoxicity": "inactive: -1.4%"},
      {"smiles": "CC1Cc2ccccc2N1C(=O)CSc1nnc(-c2ccccc2Cl)o1", "note": "(stereo not given)", "activity change, negative = cytotoxicity": "inactive: 0.231%"},
      {"smiles": "Cc1ccc(-n2nc3c(=O)n(C(C)C(=O)NCCCc4ccccc4)nc(C)c3c2C)cc1", "note": "(stereo not given)", "Potency": "active: 20.6 µM"},
      {"smiles": "FC(F)(F)c1ccc(CN2C[C@@H]3C(c4ccc(Cl)nc4)C4(c5cccnc5)CC3(C4)[C@H]2c2ccccc2)cc1", "note": "(stereo not given in full)", "Potency": "inconclusive: 25.9 µM [falling, single point]"},
      {"smiles": "CC(C)(C)c1cc(OC(=O)C2CCCC2)ccc1O", "activity change, negative = cytotoxicity": "inactive: -14.5%"},
      {"smiles": "Cc1nc(-c2ccccc2)sc1CCNC(=O)C(=O)Nc1ccc2c(c1)OCO2", "activity change, negative = cytotoxicity": "inactive: -9.6%"},
      {"smiles": "CCN(Cc1ccccc1)S(=O)(=O)c1cc(C(=O)NC2CCCCCC2)ccc1OC", "Potency": "inconclusive: 29.1 µM [falling, single point]"},
      {"smiles": "CCOC(=O)c1cccc(NC(=O)CC2C(=O)N(c3ccc(OC)cc3)C(=O)N2C2CCCC2)c1", "note": "(stereo not given)", "activity change, negative = cytotoxicity": "inactive: 1.41%"},
      {"smiles": "Cc1ccc(N=C(NOCc2ccc(Cl)cc2Cl)c2nonc2N)c(C)c1", "activity change, negative = cytotoxicity": "inactive: -8.85%"},
      {"smiles": "Cc1ccc(N(C)C(=O)C2CCN(S(=O)(=O)c3c(C)noc3/C=C/c3c(C)cc(C)cc3C)CC2)cc1", "activity change, negative = cytotoxicity": "inactive: -13.8%"},
      {"smiles": "COc1ccc2nc3sc(C(=O)N4CCN(C)CC4)cc3cc2c1", "activity change, negative = cytotoxicity": "inactive: 15.1%"},
      {"smiles": "CCOc1ccc(-n2nc(CO)c(C(=O)NCCCc3ccccc3)n2)cc1", "activity change, negative = cytotoxicity": "inactive: 3.36%"},
      {"smiles": "Cc1ccc(NC(=O)c2cc([N+](=O)[O-])ccc2NCc2cccnc2)cc1Cl", "Potency": "inconclusive: 5.17 µM [falling, partial curve, poor fit]"},
      {"smiles": "O=C(Nc1ccc(F)cc1)N1CCCN(c2nccc(C(F)(F)F)n2)CC1", "Potency": "inconclusive: 3.66 µM [falling, partial curve, poor fit]"},
      {"smiles": "CC(=O)Nc1ccc(S(=O)(=O)N2CCC(c3nnnn3-c3ccccc3)CC2)cc1", "Potency": "inconclusive: 32.6 µM [falling, partial curve, poor fit]"},
      {"smiles": "Cc1nc2ccccc2n2c(O)c(CC(=O)O)cc12", "Potency": "inconclusive: 23.1 µM [activator, single point]"},
      {"smiles": "COCCCNC(=S)Nc1ccc(C)cc1", "Potency": "inconclusive: 5.8 µM [falling, partial curve, poor fit]"},
      {"smiles": "CCOc1ccc(C(=O)Nc2cccc(C(=O)OCc3cc(=O)n4nc(C5CC5)sc4n3)c2)cc1", "activity change, negative = cytotoxicity": "inactive: -9.57%"},
      {"smiles": "C=C(c1ccccc1Cl)[n+]1ccccc1", "Potency": "inconclusive: 7.31 µM [falling, partial curve, poor fit]"},
      {"smiles": "Cc1ccc(NC(=O)CCSc2nc(-c3ccco3)cc(C(F)(F)F)n2)cc1F", "activity change, negative = cytotoxicity": "inactive: -2.94%"},
      {"smiles": "CCOC(=O)/C(C#N)=C\\c1c(OCC)n(CC)c2ccccc12", "Potency": "inconclusive: 29.1 µM [falling, partial curve, poor fit]"},
      {"smiles": "COc1ccc(C)cc1Nc1n[n+](-c2ccccc2)c(-c2c(Cl)cccc2Cl)s1", "Potency": "inconclusive: 20.6 µM [falling, single point]"},
      {"smiles": "COc1ccc(C2C(C(=O)N3CCN(c4ccccc4)CC3)c3ccccc3C(=O)N2C)cc1", "note": "(stereo not given)", "activity change, negative = cytotoxicity": "inactive: -13.1%"},
      {"smiles": "Cc1ccc(C)c(OCc2cc(C(=O)N3CCOCC3)no2)c1", "Potency": "inconclusive: 29.1 µM [falling, single point]"},
      {"smiles": "CC(CC(=O)Nc1cccc(Cl)c1)c1ccccc1", "note": "(stereo not given)", "Potency": "inconclusive: 29.1 µM [falling, single point]"},
      {"smiles": "O=C(c1ccc(NS(=O)(=O)c2cccc(C(F)(F)F)c2)cc1)N1CCCC1", "activity change, negative = cytotoxicity": "inactive: -2.09%"},
      {"smiles": "CC(C)C[C@H](NC(=O)c1[nH]cnc1C(=O)N[C@@H](Cc1ccccc1)C(=O)OC(C)(C)C)C(=O)OCc1ccccc1", "Potency": "inconclusive: 16.4 µM [falling, partial curve, poor fit]"},
      {"smiles": "Cc1cc(Nc2cccc(Cl)c2)nc(NCc2ccccc2)n1", "Potency": "inconclusive: 29.1 µM [falling, single point]"},
      {"smiles": "CCOc1ccc(CCNC(=O)c2cccc(-n3cnnn3)c2)cc1OCC", "activity change, negative = cytotoxicity": "inactive: 0.29%"},
      {"smiles": "COc1ccc(NC(=O)CSc2nnnn2C2CCCCC2)cc1", "activity change, negative = cytotoxicity": "inactive: -9.72%"},
      {"smiles": "Cc1ccc2onc(CNC(=O)NCc3cccc(Cl)c3)c2c1", "activity change, negative = cytotoxicity": "inactive: 9.28%"},
      {"smiles": "C=CCN(CC=C)S(=O)(=O)c1ccc2nc(NC(=O)C(C)C)sc2c1", "Potency": "inconclusive: 11.6 µM [falling, partial curve]"},
      {"smiles": "O=C(O)CCCNc1cc(N2CCN(C3CCCCC3)CC2)c2noc3c2c1C(=O)c1ccccc1-3", "Potency": "inconclusive: 29.1 µM [falling, single point]"},
      {"smiles": "Cc1cc(C)cc(Oc2coc3cc(OCC(=O)NC4CCCCC4)ccc3c2=O)c1", "activity change, negative = cytotoxicity": "inactive: 9.29%"},
      {"smiles": "CCOC(=O)c1c(C)nc2c(c1C)/C(=N/O)CC(C)(C)C2", "activity change, negative = cytotoxicity": "inactive: -0.368%"},
      {"smiles": "Cc1cc(C)c(NS(=O)(=O)c2ccc(-c3cnc(C4CC4)o3)cc2)c(C)c1", "activity change, negative = cytotoxicity": "inactive: -16.8%"},
      {"smiles": "O=C(COCc1cc(-c2cccs2)on1)NCc1ccc(Cl)cc1", "activity change, negative = cytotoxicity": "inactive: -1.7%"},
      {"smiles": "CCCOC(=O)c1c(NC(=O)C2c3ccccc3Oc3ccccc32)sc2c1CCCC2", "activity change, negative = cytotoxicity": "inconclusive: -51.8% [activator]"},
      {"smiles": "CCOCCCNc1nc2c(C)cccn2c(=O)c1/C=C1\\SC(=S)N(C(C)CC)C1=O", "note": "(stereo not given)", "Potency": "inconclusive: 4.11 µM [falling, partial curve, poor fit]"},
      {"smiles": "Cc1ccc(SC(C)C(=O)NCc2ccncc2)cc1", "note": "(stereo not given)", "activity change, negative = cytotoxicity": "inactive: 0.685%"},
      {"smiles": "CC1(C)Cc2cccc(C(=O)Nc3ccc(Cl)cc3)c2O1", "Potency": "inconclusive: 9.2 µM [activator, partial curve]"},
      {"smiles": "CC1=Nc2ccccc2/C1=C\\c1sc(Nc2ccc(C)cc2)nc1O", "Potency": "inconclusive: 20.6 µM [falling, single point]"},
      {"smiles": "Cc1sc2nc(SCc3nnc(-c4cccs4)o3)n(C3CCCC3)c(=O)c2c1C", "Potency": "inconclusive: 29.1 µM [falling, single point]"},
      {"smiles": "CC[C@]12c3[nH]c4ccc(Cl)cc4c3CCN1C(=O)[C@@H](CC(=O)NC/C=C(\\C)CCC=C(C)C)C[C@@H]2C(=O)N1CCN(C(=O)c2ccco2)CC1", "Potency": "inconclusive: 13 µM [falling, partial curve, poor fit]"},
      {"smiles": "N=c1c(C(=O)NCCc2ccccc2)cc2c(=O)n3ccccc3nc2n1CC1CCCO1", "note": "(stereo not given)", "Potency": "inconclusive: 20.6 µM [activator, partial curve, poor fit]"},
      {"smiles": "O=c1c(-c2nnc(SCc3ccc(Cl)cc3Cl)o2)cccn1Cc1ccccc1", "Potency": "inconclusive: 18.4 µM [falling, single point]"},
      {"smiles": "COc1ccc(N=Cc2c(O)[nH]c3ccccc23)cc1", "Potency": "inconclusive: 29.1 µM [falling, single point]"},
      {"smiles": "O=C(CNc1ccc(Br)cc1)Nc1cccc(S(=O)(=O)N2CCCC2)c1", "Potency": "inconclusive: 23.1 µM [falling, partial curve, poor fit]"},
      {"smiles": "C#CCOCCOCCOCCNc1nc(N2CCN(C(=O)[C@H]([C@@H](C)CC)n3cc([C@@H](N)Cc4ccc(O)cc4)nn3)CC2)nc(N2CCN(C(=O)[C@H](Cc3ccc(O)cc3)n3cc([C@@H](N)C(C)CC)nn3)CC2)n1", "note": "(stereo not given in full)", "Potency": "inconclusive: 25.9 µM [falling, partial curve, poor fit]"},
      {"smiles": "Cc1nc(N)[nH]c(=O)c1CCCNc1ccc([N+](=O)[O-])cc1", "Potency": "inconclusive: 25.9 µM [falling, partial curve, poor fit]"},
      {"smiles": "Cn1nc(CC(=O)N2CCN(c3ccccc3)CC2)c2ccccc2c1=O", "activity change, negative = cytotoxicity": "inactive: -11.6%"},
      {"smiles": "Cc1ccc(NC(=O)C(=O)NCC(c2cccnc2)N2CCOCC2)cc1Cl", "note": "(stereo not given)", "Potency": "inconclusive: 14.6 µM [falling, single point]"},
      {"smiles": "COc1ccccc1N(C)S(=O)(=O)c1ccc(C(=O)N2CCC(C(N)=O)CC2)cc1", "Potency": "inconclusive: 29.1 µM [activator, single point]"},
      {"smiles": "Cc1ccccc1OCc1nc(-c2ccc(NC(=O)c3ccco3)cc2)no1", "activity change, negative = cytotoxicity": "inactive: -14%"},
      {"smiles": "CCOC(=O)N1CCN(CC(=O)Nc2nc3ccc(OC)cc3s2)CC1", "activity change, negative = cytotoxicity": "inactive: 1.47%"},
      {"smiles": "Cc1cc(Br)c(OCc2ccc(C(=O)N/N=C/c3ccc[nH]3)cc2)c(Br)c1", "Potency": "active: 1.3 µM"},
      {"smiles": "COc1ccc(-c2noc(CSc3nnc(Cc4ccccc4)n3-c3cccc(C)c3)n2)cc1OC", "activity change, negative = cytotoxicity": "inactive: -7.6%"},
      {"smiles": "C#CCOCCOCCOCCNc1nc(N2CCN(C(=O)CCCCCCCCCCNC(=O)Cn3cc(CCCCCN)nn3)CC2)nc(N2CCN(C(=O)CCCCCCCCCCNC(=O)[C@H]([C@@H](C)CC)n3cc(CCCCN=C(N)N)nn3)CC2)n1", "Potency": "inconclusive: 29.1 µM [falling, single point]"},
      {"smiles": "O=C(N/N=C\\c1ccc(CNS(=O)(=O)c2ccc(Cl)cc2)o1)C(=O)Nc1ccc(Oc2ccccc2)cc1", "Potency": "inconclusive: 29.1 µM [falling, single point]"},
      {"smiles": "CCCCn1c2ccccc2c2nnc(SCC(=O)Nc3ccc(NC(C)=O)cc3)nc21", "activity change, negative = cytotoxicity": "inactive: -5.03%"},
      {"smiles": "O=C(c1ccc(S(=O)(=O)NCC2CCCO2)cc1)N1CCc2ccccc21", "note": "(stereo not given)", "activity change, negative = cytotoxicity": "inactive: -21.7%"},
      {"smiles": "CCCN1CCN(C(c2cc3cc(OCC)ccc3[nH]c2=O)c2nnnn2C2CCCCC2)CC1", "note": "(stereo not given)", "activity change, negative = cytotoxicity": "inactive: 12.1%"},
      {"smiles": "C=C(c1ccc(OC)cc1)c1ccc(OC)cc1", "Potency": "inconclusive: 25.9 µM [falling, partial curve]"},
      {"smiles": "S=c1[nH]nc(CSCc2ccc(Cl)cc2Cl)n1-c1ccccc1", "Potency": "inconclusive: 29.1 µM [falling, single point]"},
      {"smiles": "COc1ccccc1NC(=O)C(NC(=O)OC(C)(C)C)C(C)OCc1ccccc1", "note": "(stereo not given)", "activity change, negative = cytotoxicity": "inactive: -5.43%"},
      {"smiles": "CCCCCCCCN1[C@@H](CC(=O)O)c2cc(F)ccc2S1(=O)=O", "activity change, negative = cytotoxicity": "inactive: -0.785%"},
      {"smiles": "CCc1ccc(Nc2n[n+](C)c(-c3ccncc3)s2)cc1", "Potency": "inconclusive: 32.6 µM [falling, partial curve, poor fit]"},
      {"smiles": "CCCCOc1nnc(-c2ccc(OCC)cc2)c2ccccc12", "activity change, negative = cytotoxicity": "inactive: -0.543%"},
      {"smiles": "OC(COC(c1ccc(Cl)cc1)c1ccc(Cl)cc1)CN1CCCC1", "note": "(stereo not given)", "Potency": "inconclusive: 4.11 µM [falling, single point]"}
    ]}
  ]
}
